No constants are given. Whether binding was seen depends on the method and setting. Some results given as binding are weak or reduced against the parent protein; the word gives no strength.
Biological target: T1, recombinant BAG3 full-length protein (UniProt O95817 2-575, limits assumed)
T1 construct: mature; also called rBAG3; E. Coli rBAG3
Assay: blocking assay, flow cytometry: FITC-rBAG3 (40 µg/ml) binding to the surface of J774 A.1 macrophages with antibody at 3200 µg/ml

Chains of the proteins cited; added tags and fusions are not shown. Residues count along the entry.
UniProt O95817, residues 2-575: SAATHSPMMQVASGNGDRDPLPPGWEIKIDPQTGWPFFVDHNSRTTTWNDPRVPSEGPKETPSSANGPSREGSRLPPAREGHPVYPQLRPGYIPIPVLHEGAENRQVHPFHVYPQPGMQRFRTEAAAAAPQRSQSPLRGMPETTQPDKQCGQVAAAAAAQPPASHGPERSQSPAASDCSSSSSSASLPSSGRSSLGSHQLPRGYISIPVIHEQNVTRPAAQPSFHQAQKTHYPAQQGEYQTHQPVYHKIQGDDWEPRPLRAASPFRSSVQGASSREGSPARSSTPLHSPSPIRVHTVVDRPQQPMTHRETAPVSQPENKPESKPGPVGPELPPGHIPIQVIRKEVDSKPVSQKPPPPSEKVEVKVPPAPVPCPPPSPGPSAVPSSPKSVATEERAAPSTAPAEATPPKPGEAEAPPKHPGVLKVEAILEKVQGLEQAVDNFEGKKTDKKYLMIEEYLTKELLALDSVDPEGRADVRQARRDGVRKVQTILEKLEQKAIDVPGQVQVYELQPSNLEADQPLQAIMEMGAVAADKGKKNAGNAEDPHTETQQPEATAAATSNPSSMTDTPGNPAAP

binding: binds
B1: AC-2 murine antibody (antibody, V domains shown)
VH: EVQLQQSGAELVKPGASVKLSCTASGFNIKDTYMYWVKQRPEQGLEWIGGVDPANGNTRYDPKFQGKATLTADTSSSTAYLQLSSLTSEDTAVYYCGRDGAMDYWGQGTSVTVSS
VL: DIVMSQSPSSLAVSVGEKVTMSCKSSQSLLYSSNQKNYLAWHQQKPGQSPKLLIYWASTRESGVPDRFTGSGSGTDFTLTISSVKAEDLAIYYCQQYYTYPLTFGAGTKLELK
notes: Murine hybridoma antibody; also called anti-BAG3 mouse antibody (AC2); murine anti-BAG AC-2 antibody

— patent US20210122818A1 (BIOUNIVERSA S R L, published 2021)
